Assay results: PubChem BioAssay AID330 (DTP/NCI, 2004)
The list is a part of this screen's results and no random one: it is rich in T/C values a quarter to a half above the control, in often repeated tests (any T/C) and in doses without a T/C. Further doses and runs are listed elsewhere. T/C: endpoint of the treated group in % of that of the vehicle group. Some doses have a count of surviving animals in place of a T/C: the source holds a T/C of zero for them, seemingly a mark for toxic or unscored doses. Some survivor counts are full or nearly so, which does not show that the dose was tolerated: the source hardly ever lists a survival T/C far under the control, and the zero likely stands for such cases as well. Survivors were counted at the toxicity check, usually on the fifth day, unless a day is given; later deaths do not show. Schedules are NCI's codes, read here as Q, the interval in days (D) or hours (H), X, the number of doses. Some entries hold several experiments; the results are listed from low to high. Where survival is the endpoint, the PubChem record calls one and a half times the control and up active, and a quarter to a half above the control has no call in these data; cut-offs in other NCI protocols can differ.

Tested on: P388 leukemia ip, CD2F1 mice, survival T/C
Experiment: NCI In Vivo Anticancer Drug Screen. Data for tumor model P388 Leukemia (intraperitoneal) in CD2F1 (CDF1) mice
Conditions: T/C endpoint: median survival time, higher T/C = longer survival
[1] = dose: 50.0 mg/kg/injection, schedule: Q01DX009 (ip), vehicle: saline
[2] = dose: 120.0 mg/kg/injection, schedule: Q01DX005 (ip), vehicle: saline with Tween-80
[3] = dose: 240.0 mg/kg/injection, schedule: Q01DX005 (ip), vehicle: saline with Tween-80
[4] = dose: 200.0 mg/kg/injection, schedule: Q01DX005 (ip), vehicle: saline with Tween-80
[5] = dose: 200.0 mg/kg/injection, schedule: Q01DX009 (ip), vehicle: saline with Tween-80
[6] = dose: 50.0 mg/kg/injection, schedule: Q01DX005 (ip), vehicle: Klucel (hydroxypropylcellulose) (HPC)
[7] = dose: 100.0 mg/kg/injection, schedule: Q01DX005 (ip), vehicle: Klucel (hydroxypropylcellulose) (HPC)
[8] = dose: 200.0 mg/kg/injection, schedule: Q01DX005 (ip), vehicle: Klucel (hydroxypropylcellulose) (HPC)
[9] = dose: 50.0 mg/kg/injection, schedule: Q01DX009 (ip), vehicle: saline with Tween-80
[10] = dose: 100.0 mg/kg/injection, schedule: Q01DX009 (ip), vehicle: saline with Tween-80
[11] = dose: 60.0 mg/kg/injection, schedule: Q01DX005 (ip), vehicle: saline with Tween-80
[12] = dose: 25.0 mg/kg/injection, schedule: Q01DX009 (ip), vehicle: saline

For `CC(C)NC(=O)c1ccc(CBr)cc1`, which survivor count (dose: 25.0 mg/kg/injection, schedule: Q01DX009 (ip), vehicle: other) is on record?
The survivor count was 6 of 6.

What about the survivor count (dose: 50.0 mg/kg/injection, schedule: Q01DX009 (ip), vehicle: other) of the same compound?
Its survivor count is 4 of 6.

What about the survivor count (dose: 100.0 mg/kg/injection, schedule: Q01DX009 (ip), vehicle: other) of the same compound?
The survivor count was 2 of 6.

What about the survivor count (dose: 200.0 mg/kg/injection, schedule: Q01DX009 (ip), vehicle: other) of the same compound?
The survivor count was 0 of 6.

And the survivor count (dose: 400.0 mg/kg/injection, schedule: Q01DX009 (ip), vehicle: other)?
Its survivor count is 0 of 6.

How did the survivor count [1] turn out when `C[N+]1(C)CCOC(O)(c2ccccc2)C1` (stereo not given) was run?
The survivor count was 0 of 6.

Which results are given for `NC(=S)N/N=C1/C(=O)N(c2ccc(Cl)cc2)C(=O)C1C(=O)Nc1ccc(Cl)cc1` (stereo not given)?
survivor count [2]: 1 of 6; survivor count [3]: 0 of 6

How did the survivor count [4] turn out when `CCOc1ccc(C(C)c2cc3c(cc2OCC(=O)O)OCO3)cc1` (stereo not given) was run?
The survivor count was 4 of 6.

For `CCN(CC)Cc1c(C)[nH]c2ccccc2c1=O`, which survivor count [5] is on record?
The survivor count was 0 of 6.

For `Cn1c(NCc2ccccc2)cc(=O)n(C)c1=O`, which survivor count (dose: 62.5 mg/kg/injection, schedule: Q01DX009 (ip), vehicle: saline with Tween-80) is on record?
Its survivor count is 0 of 6.

What about the survivor count (dose: 125.0 mg/kg/injection, schedule: Q01DX009 (ip), vehicle: saline with Tween-80) of the same compound?
The survivor count was 0 of 6.

What about the survivor count (dose: 250.0 mg/kg/injection, schedule: Q01DX009 (ip), vehicle: saline with Tween-80) of the same compound?
The survivor count was 0 of 6.

What does the source list for `O=c1oc2ccccc2c(O)c1C1=N/C(=N/N=C/c2ccc(Cl)cc2)SC1`?
survivor count (dose: 120.0 mg/kg/injection, schedule: Q01DX005 (ip), vehicle: Klucel (hydroxypropylcellulose) (HPC)): 6 of 6; survivor count (dose: 240.0 mg/kg/injection, schedule: Q01DX005 (ip), vehicle: Klucel (hydroxypropylcellulose) (HPC)): 6 of 6

Which results are given for `CN(C)CCN(Cc1ccccc1)c1ccc2ccccc2n1`?
survivor count [6]: 3 of 5; survivor count [7]: 0 of 5; survivor count [8]: 0 of 5

With `Cn1cnc([N+](=O)[O-])c1Sc1ccc(Cl)cc1` as the compound, how does the survivor count (dose: 6.25 mg/kg/injection, schedule: Q01DX009 (ip), vehicle: saline with Tween-80) read?
The survivor count was 6 of 6.

And the survivor count (dose: 12.5 mg/kg/injection, schedule: Q01DX009 (ip), vehicle: saline with Tween-80)?
Its survivor count is 6 of 6.

What about the survivor count (dose: 25.0 mg/kg/injection, schedule: Q01DX009 (ip), vehicle: saline with Tween-80) of the same compound?
Its survivor count is 6 of 6.

And the survivor count [9]?
The survivor count was 6 of 6.

And the survivor count [10]?
The survivor count was 6 of 6.

And the survivor count [5]?
The survivor count was 6 of 6.

Which survivor count [11] does the source give for `FC(F)(F)c1cc(Nc2nc(-c3ccccc3)nc3c2C(=NCc2ccco2)OC3=NCc2ccco2)ccc1Cl` here?
The survivor count was 6 of 6.

What about the survivor count [2] of the same compound?
The survivor count was 6 of 6.

What about the survivor count [3] of the same compound?
The survivor count was 6 of 6.

With `CC1=C(C)C(=O)O[C@@H]([C@](C)(O)[C@]2(O)CC[C@@]3(O)[C@@H]4C[C@H]5O[C@]56[C@@H](O)C=CC(=O)[C@]6(C)[C@H]4CC[C@]23C)C1` as the compound, how does the T/C (dose: 8.0 mg/kg/injection, schedule: Q01DX005 (ip), vehicle: saline) read?
The T/C was 125 % of control.

What about the T/C (dose: 8.0 mg/kg/injection, schedule: Q01DX009 (ip), vehicle: saline) of the same compound?
Its T/C is 132 % of control.

And the T/C (dose: 16.0 mg/kg/injection, schedule: Q01DX005 (ip), vehicle: distilled water + Tween-80)?
The T/C was 125 % of control.

And the survivor count (dose: 32.0 mg/kg/injection, schedule: Q01DX005 (ip), vehicle: distilled water + Tween-80)?
The survivor count was 3 of 6.

And the T/C (dose: 32.0 mg/kg/injection, schedule: Q01DX005 (ip), vehicle: saline)?
Its T/C is 125 % of control.

What about the survivor count (dose: 64.0 mg/kg/injection, schedule: Q01DX005 (ip), vehicle: distilled water + Tween-80) of the same compound?
The survivor count was 1 of 6.

What about the survivor count (dose: 64.0 mg/kg/injection, schedule: Q01DX009 (ip), vehicle: saline) of the same compound?
Its survivor count is 2 of 6.

For `Cc1cc(N)ccc1-n1cnc2c1c(=O)n(C)c(=O)n2C`, which survivor count (dose: 200.0 mg/kg/injection, schedule: Q01DX005 (ip), vehicle: water) is on record?
Its survivor count is 2 of 5.

Which survivor count [4] does the source give for `N/N=C1/C=Cc2cccc3cccc1c23` here?
The survivor count was 4 of 6.

For `CN(C)C12CCCCCC1S(=O)(=O)C2` (stereo not given), which survivor count [5] is on record?
Its survivor count is 3 of 6.

What does the source list for `CCC[C@H]1N=C(OCC)N[C@@H]1CCC`?
survivor count (dose: 25.0 mg/kg/injection, schedule: Q01DX005 (ip), vehicle: Klucel (hydroxypropylcellulose) (HPC)): 3 of 6; survivor count [6]: 0 of 6; survivor count [7]: 0 of 6; survivor count [8]: 0 of 6

Which survivor count [4] does the source give for `Cc1ccccc1-n1c(=S)n(-c2ccc(Cl)cc2)c2nc3ccccc3nc1/c2=N/Nc1cc(Cl)ccc1Cl` here?
Its survivor count is 0 of 6.

How did the survivor count [8] turn out when `CNc1nc2c(C)ccc3[nH]c(N(C)C)nc3c-2n1` was run?
The survivor count was 5 of 6.

With `COc1cc(C)c2c(=O)c3c(oc2c1)C(=O)c1c(O)c(OC)cc(O)c1C3=O` as the compound, how does the T/C [10] read?
The T/C was 125 % of control.

What about the survivor count (dose: 400.0 mg/kg/injection, schedule: Q01DX009 (ip), vehicle: saline with Tween-80) of the same compound?
Its survivor count is 2 of 6.

How did the survivor count [3] turn out when `C=CCSC(C)=O` was run?
The survivor count was 2 of 6.

How did the survivor count [8] turn out when `CCN(CC)CCOC(=O)C(OCC(C)C)(c1ccccc1)c1ccccc1` was run?
The survivor count was 0 of 6.

With `COc1ccc([I+]c2ccc(OC)cc2)cc1` as the compound, how does the survivor count (dose: 1.5 mg/kg/injection, schedule: Q01DX009 (ip), vehicle: saline with Tween-80) read?
The survivor count was 6 of 6.

What about the survivor count (dose: 12.5 mg/kg/injection, schedule: Q01DX009 (ip), vehicle: saline) of the same compound?
The survivor count was 6 of 6.

And the survivor count [12]?
Its survivor count is 5 of 6.

What about the survivor count [1] of the same compound?
The survivor count was 0 of 6.

With `Cc1ccc(NS(=O)(=O)N2CCCCC2)cc1` as the compound, how does the T/C (dose: 50.0 mg/kg/injection, schedule: Q01DX009 (ip), vehicle: Klucel (hydroxypropylcellulose) (HPC)) read?
Its T/C is 125 % of control.

Which T/C [1] does the source give for `CC1=CC(=NN=c2cc(C)n([O-])c(C)c2)C=C(C)[N+]1=O` here?
The T/C was 127 % of control.

And the T/C (dose: 100.0 mg/kg/injection, schedule: Q01DX009 (ip), vehicle: saline)?
The T/C was 131 % of control.

How did the survivor count [9] turn out when `CCCCCCCCCCCCCCCC(=O)N(CCCCN(CCCN(C)C)C(=O)CCCCCCCCCCCCCCC)CCCN(C)C` was run?
Its survivor count is 4 of 6.

Which results are given for `c1ccc(C(c2ccccc2)[P+](c2ccccc2)(c2ccccc2)c2ccccc2)cc1`?
T/C (dose: 0.63 mg/kg/injection, schedule: Q01DX009 (ip), vehicle: Klucel (hydroxypropylcellulose) (HPC)): 126 % of control; survivor count (dose: 2.5 mg/kg/injection, schedule: Q01DX009 (ip), vehicle: Klucel (hydroxypropylcellulose) (HPC)): 5 of 6; survivor count (dose: 5.0 mg/kg/injection, schedule: Q01DX009 (ip), vehicle: Klucel (hydroxypropylcellulose) (HPC)): 3 of 6; survivor count (dose: 10.0 mg/kg/injection, schedule: Q01DX009 (ip), vehicle: Klucel (hydroxypropylcellulose) (HPC)): 1 of 6

How did the survivor count [7] turn out when `Nc1cc(Cl)c(N(CCO)C2=NCCN2)c(Cl)c1` was run?
The survivor count was 0 of 5.

What about the survivor count [8] of the same compound?
The survivor count was 0 of 5.

How did the survivor count (dose: 400.0 mg/kg/injection, schedule: Q01DX005 (ip), vehicle: water) turn out when `COC(=O)C(CO)NC(=O)OCc1ccccc1` (stereo not given) was run?
The survivor count was 2 of 6.

Which survivor count (dose: 240.0 mg/kg/injection, schedule: Q01DX005 (ip), vehicle: saline) does the source give for `CCCCC(CN(C)C)C(=O)/C=C/c1ccccc1` (stereo not given) here?
The survivor count was 0 of 6.

`CC1NNC(=S)NN1` was tested. Which survivor count [11] did it give?
The survivor count was 0 of 6 and 1 of 6.

What about the survivor count [2] of the same compound?
Its survivor count is 0 of 6.

What about the survivor count [3] of the same compound?
Its survivor count is 0 of 6.

What does the source list for `CCCCCCCCCCCCCCCc1c(NC(C)(CC)[P+](=O)O)c(=O)n(C)n1C` (stereo not given)?
survivor count [12]: 1 of 6; survivor count [1]: 5 of 6; survivor count (dose: 200.0 mg/kg/injection, schedule: Q01DX009 (ip), vehicle: saline): 1 of 6

With `CCCCCSCN(CC)CC` as the compound, how does the survivor count [9] read?
The survivor count was 6 of 6.

What about the survivor count [10] of the same compound?
Its survivor count is 6 of 6.

What does the source list for `C(=N\Nc1nnc2c(n1)[nH]c1ccccc12)/c1cccnc1`?
survivor count (dose: 50.0 mg/kg/injection, schedule: Q01DX005 (ip), vehicle: Klucel + Tween-80): 6 of 6; survivor count (dose: 100.0 mg/kg/injection, schedule: Q01DX005 (ip), vehicle: Klucel + Tween-80): 6 of 6; survivor count (dose: 200.0 mg/kg/injection, schedule: Q01DX005 (ip), vehicle: Klucel + Tween-80): 4 of 6

With `Cc1ccc(C2N(CCN3C(=O)CS(=O)(=O)C3c3ccc(C)s3)C(=O)CS2(=O)=O)s1` (stereo not given) as the compound, how does the survivor count (dose: 400.0 mg/kg/injection, schedule: Q04DX002 (ip), vehicle: saline with Tween-80) read?
Its survivor count is 6 of 6.
